According to article doi:10.1101/2023.01.17.524225 (bioRxiv, 2023):
Like-named read-outs stand apart in the source and are kept apart here. No constants are given. Whether binding was seen depends on the method and setting. Binding seen in cells or lysates may run through a third protein. Some entries that bind do so weakly or less than the wild type. Sequences can lack the tags named with a protein.

Key:
[1] = target: T1, N-terminally tagged HaloTag-GID4 (human) (UniProt Q8IVV7); experiment: FRET or BRET
T1 sequence (chain, HaloTag NanoBRET 618 Ligand bound to the HaloTag): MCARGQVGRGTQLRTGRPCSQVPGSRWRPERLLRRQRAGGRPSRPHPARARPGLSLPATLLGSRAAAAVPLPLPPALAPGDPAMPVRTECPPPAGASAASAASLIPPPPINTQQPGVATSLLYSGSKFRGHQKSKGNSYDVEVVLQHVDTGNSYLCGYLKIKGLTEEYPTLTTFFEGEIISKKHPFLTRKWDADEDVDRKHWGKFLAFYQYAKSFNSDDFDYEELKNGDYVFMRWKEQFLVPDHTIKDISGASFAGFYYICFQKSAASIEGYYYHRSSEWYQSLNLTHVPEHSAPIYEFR

[2] = target: T1, N-terminally tagged HaloTag-GID4 (human); experiment: FRET or BRET; remark: listed apart in the source

B1: full-length C-terminally NanoLuc-tagged DDX21 (protein, UniProt Q9NR30 1-783)
chain: MPGKLRSDAGLESDTAMKKGETLRKQTEEKEKKEKPKSDKTEEIAEEEETVFPKAKQVKKKAEPSEVDMNSPKSKKAKKKEEPSQNDISPKTKSLRKKKEPIEKKVVSSKTKKVTKNEEPSEEEIDAPKPKKMKKEKEMNGETREKSPKLKNGFPHPEPDCNPSEAASEESNSEIEQEIPVEQKEGAFSNFPISEETIKLLKGRGVTFLFPIQAKTFHHVYSGKDLIAQARTGTGKTFSFAIPLIEKLHGELQDRKRGRAPQVLVLAPTRELANQVSKDFSDITKKLSVACFYGGTPYGGQFERMRNGIDILVGTPGRIKDHIQNGKLDLTKLKHVVLDEVDQMLDMGFADQVEEILSVAYKKDSEDNPQTLLFSATCPHWVFNVAKKYMKSTYEQVDLIGKKTQKTAITVEHLAIKCHWTQRAAVIGDVIRVYSGHQGRTIIFCETKKEAQELSQNSAIKQDAQSLHGDIPQKQREITLKGFRNGSFGVLVATNVAARGLDIPEVDLVIQSSPPKDVESYIHRSGRTGRAGRTGVCICFYQHKEEYQLVQVEQKAGIKFKRIGVPSATEIIKASSKDAIRLLDSVPPTAISHFKQSAEKLIEEKGAVEALAAALAHISGATSVDQRSLINSNVGFVTMILQCSIEMPNISYAWKELKEQLGEEIDSKVKGMVFLKGKLGVCFDVPTASVTEIQEKWHDSRRWQLSVATEQPELEGPREGYGGFRGQREGSRGFRGQRDGNRRFRGQREGSRGPRGQRSGGGNKSNRSQNKGQKRSFSKAFGQ
- binding [1]: binds
- binding [2]: no binding (condition: with PFI-7)

B2: full-length C-terminally NanoLuc-tagged DDX50 (protein, UniProt Q9BQ39 1-737)
chain: MPGKLLWGDIMELEAPLEESESQKKERQKSDRRKSRHHYDSDEKSETRENGVTDDLDAPKAKKSKMKEKLNGDTEEGFNRLSDEFSKSHKSRRKDLPNGDIDEYEKKSKRVSSLDTSTHKSSDNKLEETLTREQKEGAFSNFPISEETIKLLKGRGVTYLFPIQVKTFGPVYEGKDLIAQARTGTGKTFSFAIPLIERLQRNQETIKKSRSPKVLVLAPTRELANQVAKDFKDITRKLSVACFYGGTSYQSQINHIRNGIDILVGTPGRIKDHLQSGRLDLSKLRHVVLDEVDQMLDLGFAEQVEDIIHESYKTDSEDNPQTLLFSATCPQWVYKVAKKYMKSRYEQVDLVGKMTQKAATTVEHLAIQCHWSQRPAVIGDVLQVYSGSEGRAIIFCETKKNVTEMAMNPHIKQNAQCLHGDIAQSQREITLKGFREGSFKVLVATNVAARGLDIPEVDLVIQSSPPQDVESYIHRSGRTGRAGRTGICICFYQPRERGQLRYVEQKAGITFKRVGVPSTMDLVKSKSMDAIRSLASVSYAAVDFFRPSAQRLIEEKGAVDALAAALAHISGASSFEPRSLITSDKGFVTMTLESLEEIQDVSCAWKELNRKLSSNAVSQITRMCLLKGNMGVCFDVPTTESERLQAEWHDSDWILSVPAKLPEIEEYYDGNTSSNSRQRSGWSSGRSGRSGRSGGRSGGRSGRQSRQGSRSGSRQDGRRRSGNRNRSRSGGHKRSFD
- binding [1]: binds
- binding [2]: no binding (condition: with PFI-7)
